Assay results taken from PMC10520677.
Results are given in words; binding and its absence hold for the method and conditions named. For some of these results: Binding seen in cells or lysates may run through a third protein. Some binding calls cover weakened binding; strength is not graded here. Blank lines part the entries; values can stand above or below the substance they belong to.

Chains of the proteins cited; added tags and fusions are not shown. Lines headed by an entry give the natural chain unless they say otherwise; changes in a name come on top. A line that says so, or that is headed by a name, gives the form on record, which may keep a tag or linker.
UniProt O00303: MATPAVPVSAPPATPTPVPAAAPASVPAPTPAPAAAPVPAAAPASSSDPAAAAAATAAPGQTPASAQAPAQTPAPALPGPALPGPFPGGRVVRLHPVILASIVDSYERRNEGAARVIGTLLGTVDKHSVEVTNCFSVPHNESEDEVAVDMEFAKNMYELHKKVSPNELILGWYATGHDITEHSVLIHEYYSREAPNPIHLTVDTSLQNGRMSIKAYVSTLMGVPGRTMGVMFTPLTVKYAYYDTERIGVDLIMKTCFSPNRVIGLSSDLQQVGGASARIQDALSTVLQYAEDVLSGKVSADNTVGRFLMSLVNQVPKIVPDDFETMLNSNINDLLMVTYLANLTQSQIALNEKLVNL
FBXW7β (Q969H0-2, form named): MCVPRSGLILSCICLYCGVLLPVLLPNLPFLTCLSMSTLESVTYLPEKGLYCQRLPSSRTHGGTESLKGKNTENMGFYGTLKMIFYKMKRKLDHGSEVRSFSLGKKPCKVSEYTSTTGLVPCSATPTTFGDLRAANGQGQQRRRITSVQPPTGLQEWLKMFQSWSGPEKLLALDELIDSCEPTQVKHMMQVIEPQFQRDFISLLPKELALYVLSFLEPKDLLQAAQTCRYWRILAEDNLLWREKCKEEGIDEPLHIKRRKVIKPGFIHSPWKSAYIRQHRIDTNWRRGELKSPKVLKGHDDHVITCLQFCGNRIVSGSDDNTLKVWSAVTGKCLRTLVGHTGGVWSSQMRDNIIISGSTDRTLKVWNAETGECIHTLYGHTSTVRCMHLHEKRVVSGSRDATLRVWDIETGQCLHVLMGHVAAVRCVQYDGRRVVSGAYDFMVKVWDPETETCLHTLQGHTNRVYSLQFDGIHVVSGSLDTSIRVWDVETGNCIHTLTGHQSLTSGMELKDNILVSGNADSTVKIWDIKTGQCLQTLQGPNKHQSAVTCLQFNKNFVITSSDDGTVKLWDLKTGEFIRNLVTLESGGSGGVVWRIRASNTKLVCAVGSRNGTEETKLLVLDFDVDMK
UniProt P01106: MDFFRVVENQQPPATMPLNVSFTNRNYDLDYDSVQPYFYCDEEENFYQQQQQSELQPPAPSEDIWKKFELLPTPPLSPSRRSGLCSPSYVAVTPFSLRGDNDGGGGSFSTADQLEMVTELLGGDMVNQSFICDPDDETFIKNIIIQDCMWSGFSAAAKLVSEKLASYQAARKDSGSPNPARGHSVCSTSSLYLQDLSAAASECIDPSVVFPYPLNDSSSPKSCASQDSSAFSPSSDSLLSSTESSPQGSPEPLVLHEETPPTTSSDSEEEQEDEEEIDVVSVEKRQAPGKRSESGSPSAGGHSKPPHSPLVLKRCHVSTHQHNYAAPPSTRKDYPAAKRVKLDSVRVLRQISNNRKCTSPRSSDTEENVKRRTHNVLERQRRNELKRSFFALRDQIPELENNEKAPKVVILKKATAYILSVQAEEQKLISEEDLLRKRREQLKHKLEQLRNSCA

What was measured:
[1] = molecular target: eIF3f (co-IP with FBXW7β, Figure S3H) (human (cDNA from HEK293T cells or endogenous in human cell lines)) (UniProt O00303); assay: co-IP; eIF3f with FBXW7β (Figure S3H); constructs, bait and cells not given
[2] = molecular target: Eukaryotic Initiation translation factor 3, f subunit (eIF3f) (human (endogenous in HCT-116)) (UniProt O00303); assay: SEC; lysates of HCT-116 cells (shNC or DOX-induced shEIF3F) on Superose 6 Increase 10/300 GL in cold PBS pH 7.4, 0.4 ml/min; fractions immunoblotted
[3] = molecular target: Eukaryotic Initiation translation factor 3, f subunit (eIF3f) (human (endogenous in HCT-116)) (UniProt O00303); assay: co-IP; endogenous proteins; lysis in 50 mM Tris-HCl pH 7.5, 150 mM NaCl, 1 mM EDTA, 1% NP-40; antibody overnight at 4 °C, protein A/G beads 4 h; immunoblot
[4] = molecular target: Eukaryotic Initiation translation factor 3, f subunit (eIF3f) (human (endogenous in HCT-116)) (UniProt O00303); assay: proximity ligation; HCT-116 cells fixed with 4% PFA, permeabilised with 0.5% Triton X-100, primary antibodies overnight at 4 °C, Duolink kit, confocal microscope

- binding [1]: binds
Substance: FBXW7β (co-IP with eIF3f, Figure S3H) (from UniProt Q969H0-2 1-627)

- binding [2]: binds
Substance: FBXW7β (from UniProt Q969H0-2 1-627)

- binding [3]: binds
- binding [4]: binds
Substance: MYC (from UniProt P01106 1-454)
